The list is a part of this screen's results and no random one: it is rich in T/C values a quarter to a half above the control, in often repeated tests (any T/C) and in doses without a T/C. Other doses and runs of a compound stand elsewhere. T/C is the treated group as % of the vehicle group. Some doses have a count of surviving animals in place of a T/C: the source files T/C as zero there, which appears to mark a toxic dose or a test without result, not a measured value. Some survivor counts are full or nearly so, which does not show that the dose was tolerated: survival well below the control is almost never listed, so the zero probably covers shortened survival too. Survivors were counted at the toxicity check, usually on the fifth day, unless a day is given; later deaths do not show. Schedule codes are those of the source, taken here to give the interval after Q, in days (D) or hours (H), and the number of doses after X. Some doses were run more than once; the results are listed from low to high. For survival time, this PubChem deposit counts one and a half times the control or more as active, and values a quarter to a half above the control carry no call in these data; other NCI protocols may use other cut-offs. Some T/C values are followed by the survivors on the day toxicity was checked, most often the fifth; without a count, all were alive then.
System: L1210 leukemia ip in BDF1 mice, survival T/C
Assay: NCI In Vivo Anticancer Drug Screen. Data for tumor model L1210 Leukemia (intraperitoneal) in B6D2F1 (BDF1) mice
Conditions: T/C endpoint: mean survival time, higher T/C = longer survival
[1] = dose: 6.25 mg/kg/injection, schedule: Q04DX003 (ip), vehicle: saline
[2] = dose: 25.0 mg/kg/injection, schedule: Q04DX003 (ip), vehicle: saline
[3] = dose: 50.0 mg/kg/injection, schedule: Q04DX003 (ip), vehicle: saline
[4] = dose: 100.0 mg/kg/injection, schedule: Q04DX003 (ip), vehicle: saline
[5] = dose: 200.0 mg/kg/injection, schedule: Q04DX003 (ip), vehicle: saline
[6] = dose: 400.0 mg/kg/injection, schedule: Q04DX003 (ip), vehicle: saline
[7] = dose: 400.0 mg/kg/injection, schedule: Q04DX003 (ip), vehicle: saline with Tween-80
[8] = dose: 50.0 mg/kg/injection, schedule: Q01DX009 (ip), vehicle: saline with Tween-80
[9] = dose: 100.0 mg/kg/injection, schedule: Q01DX009 (ip), vehicle: saline with Tween-80
[10] = dose: 400.0 mg/kg/injection, schedule: Q04DX003 (ip), vehicle: Klucel (hydroxypropylcellulose) (HPC)
[11] = dose: 400.0 mg/kg/injection, schedule: Q04DX002 (ip), vehicle: Klucel (hydroxypropylcellulose) (HPC)
[12] = dose: 200.0 mg/kg/injection, schedule: Q01DX009 (ip), vehicle: saline with Tween-80
[13] = dose: 200.0 mg/kg/injection, schedule: Q01DX009 (ip), vehicle: gum acacia

`CC1CC[N-]CC1.CC1CC[N-]CC1.CC1CC[N-]CC1.CC1CC[N-]CC1.O=C([O-])C(=O)[O-].O=C([O-])C(=O)[O-].[Nb+5].[O-][O-].[O-][O-].[Pt+4]` was tested, and the survivor count [1] was 1 of 6, the survivor count (dose: 12.5 mg/kg/injection, schedule: Q04DX003 (ip), vehicle: saline) was 0 of 6 and the survivor count [2] was 0 of 6. The survivor count [3] was 0 of 6, the survivor count [4] was 1 of 6 and the survivor count [5] was 0 of 6. The survivor count [6] was 1 of 6.
With `Cc1n(-c2ccccc2)c2c([n+]1C)C(=O)c1ccccc1C2=O` the survivor count (dose: 100.0 mg/kg/injection, schedule: Q04DX003 (ip), vehicle: saline with Tween-80) was 0 of 6, the survivor count (dose: 200.0 mg/kg/injection, schedule: Q04DX003 (ip), vehicle: saline with Tween-80) was 0 of 6 and the survivor count [7] was 0 of 6.
With `O=C(C=C(C(F)(F)F)C(F)(F)F)c1cccc(S(=O)(=O)F)c1` the survivor count (dose: 25.0 mg/kg/injection, schedule: Q01DX009 (ip), vehicle: saline with Tween-80) was 2 of 6, the survivor count [8] was 2 of 6 and the survivor count [9] was 0 of 6.
In the case of `Brc1cnc[nH]1`, the survivor count (dose: 200.0 mg/kg/injection, schedule: Q01DX009 (ip), vehicle: water) is reported as 6 of 6.
In the case of `COc1ccc(Nc2ccnc3cc(Cl)ccc23)cc1CN(CCCl)CCCl`, the survivor count (dose: 5.0 mg/kg/injection, schedule: Q01DX009 (ip), vehicle: Klucel (hydroxypropylcellulose) (HPC)) is reported as 6 of 6, the survivor count [1] is reported as 4 of 6 and the survivor count (dose: 10.0 mg/kg/injection, schedule: Q01DX009 (ip), vehicle: Klucel (hydroxypropylcellulose) (HPC)) is reported as 0 of 6. The survivor count (dose: 20.0 mg/kg/injection, schedule: Q01DX001 (ip), vehicle: Klucel (hydroxypropylcellulose) (HPC)) was 5 of 6, the survivor count (dose: 20.0 mg/kg/injection, schedule: Q04DX003 (ip), vehicle: Klucel (hydroxypropylcellulose) (HPC)) was 5 of 6 and the survivor count (dose: 100.0 mg/kg/injection, schedule: Q01DX001 (ip), vehicle: carboxymethylcellulose (CMC)) was 4 of 4. The survivor count (dose: 100.0 mg/kg/injection, schedule: Q04DX003 (ip), vehicle: Klucel (hydroxypropylcellulose) (HPC)) was 2 of 6, the survivor count (dose: 200.0 mg/kg/injection, schedule: Q01DX001 (ip), vehicle: carboxymethylcellulose (CMC)) was 4 of 4 and the survivor count (dose: 200.0 mg/kg/injection, schedule: Q04DX003 (ip), vehicle: Klucel (hydroxypropylcellulose) (HPC)) was 0 of 6. The survivor count (dose: 400.0 mg/kg/injection, schedule: Q01DX001 (ip), vehicle: carboxymethylcellulose (CMC)) was 1 of 4 and the survivor count [10] was 0 of 6.
In the case of `O=[N+]([O-])c1ccc(/C=N/c2oc(-c3ccc([N+](=O)[O-])cc3)nc2SCc2ccccc2)cc1`, the survivor count [11] is reported as 3 of 3.
With `CC1(C)OC(=O)C(=Cc2c(Cl)cccc2Cl)C(=O)O1` the survivor count (dose: 400.0 mg/kg/injection, schedule: Q01DX009 (ip), vehicle: saline with Tween-80) was 0 of 6.
`OC1CCCCC1C1CCCCC1` (centres undefined) was tested, and the survivor count [12] was 3 of 3.
`OCCN1CCN(CC/C=C2\c3ccccc3Sc3ccc(Cl)cc32)CC1` was tested, and the T/C (dose: 6.25 mg/kg/injection, schedule: Q01DX009 (ip), vehicle: saline) was 130 % of control [5 of 6 alive], the survivor count (dose: 6.25 mg/kg/injection, schedule: Q03HX024 (ip), vehicle: saline) was 0 of 6 and the survivor count (dose: 25.0 mg/kg/injection, schedule: Q01DX009 (ip), vehicle: saline) was 4 of 6. For the same compound, the T/C [2] was 133 and 135 % of control, the survivor count (dose: 32.0 mg/kg/injection, schedule: Q01DX009 (ip), vehicle: saline) was 0 of 6 and the survivor count (dose: 50.0 mg/kg/injection, schedule: Q01DX009 (ip), vehicle: saline) was 0 of 6 and 2 of 6. The survivor count [3] was 0 of 4, the survivor count (dose: 64.0 mg/kg/injection, schedule: Q01DX009 (ip), vehicle: saline) was 0 of 6 and the survivor count (dose: 80.0 mg/kg/injection, schedule: Q04DX003 (ip), vehicle: saline) was 4 of 6. The survivor count [4] was 0 of 4, the survivor count (dose: 128.0 mg/kg/injection, schedule: Q01DX009 (ip), vehicle: saline) was 0 of 6 and the survivor count (dose: 150.0 mg/kg/injection, schedule: Q01DX001 (ip), vehicle: saline) was 1 of 6. The survivor count (dose: 160.0 mg/kg/injection, schedule: Q04DX003 (ip), vehicle: saline) was 1 of 6, the survivor count [5] was 0 of 4 and the survivor count (dose: 256.0 mg/kg/injection, schedule: Q01DX009 (ip), vehicle: saline) was 0 of 6. For the same compound, the survivor count [6] was 0 of 4.
In the case of `C=C1C(=O)OC2C1C(OC(=O)/C(=C/CO)CO)CC1(CO1)C1CC=C(C)C21` (centres undefined), the survivor count (dose: 25.0 mg/kg/injection, schedule: Q01DX001 (ip), vehicle: water) is reported as 0 of 6, the survivor count (dose: 50.0 mg/kg/injection, schedule: Q01DX001 (ip), vehicle: water) is reported as 0 of 6 and the survivor count (dose: 75.0 mg/kg/injection, schedule: Q01DX001 (ip), vehicle: other) is reported as 0 of 6. For the same compound, the survivor count (dose: 100.0 mg/kg/injection, schedule: Q01DX001 (ip), vehicle: water) was 0 of 6, the survivor count (dose: 150.0 mg/kg/injection, schedule: Q01DX001 (ip), vehicle: other) was 0 of 6 and the survivor count (dose: 300.0 mg/kg/injection, schedule: Q01DX001 (ip), vehicle: other) was 0 of 6.
In the case of `O=C(C=C(C(F)(F)F)C(F)(F)F)c1ccc(Cl)cc1`, the survivor count [8] is reported as 1 of 6, the survivor count [9] is reported as 0 of 6 and the survivor count [12] is reported as 0 of 6. The survivor count [7] was 0 of 6.
In the case of `CCC1C(=O)N(c2ccc(S(=O)(=O)O)cc2)N=C1C` (centres undefined), the survivor count [10] is reported as 6 of 6.
For `CCOc1ccc(C(=O)CCN2CCOCC2)cc1`, the survivor count (dose: 400.0 mg/kg/injection, schedule: Q01DX001 (ip), vehicle: saline) was 0 of 4.
`COc1ccnc(SCc2ccccc2)n1` was tested, and the survivor count (dose: 400.0 mg/kg/injection, schedule: Q01DX009 (ip), vehicle: Klucel (hydroxypropylcellulose) (HPC)) was 0 of 6.
With `COc1ccc(C)cc1NC(=O)OCCSc1ccc(Cl)cc1` the T/C (dose: 100.0 mg/kg/injection, schedule: Q01DX009 (ip), vehicle: gum acacia) was 93, 94, 95, 99 % of control, the T/C [13] was 88 and 97 % of control and the survivor count [13] was 3 of 3 and 6 of 6. For the same compound, the survivor count (dose: 200.0 mg/kg/injection, schedule: Q04DX002 (ip), vehicle: gum acacia) was 3 of 3.
In the case of `CC1OC(O[C@H]2C[C@@H](O)[C@]3(CO)[C@H]4[C@H](O)C[C@]5(C)[C@@H](C6=CC(=O)OC6)CC[C@]5(O)[C@@H]4CC[C@]3(O)C2)C(O)C(O)C1O` (some centres undefined), the survivor count (dose: 5.0 mg/kg/injection, schedule: Q01DX009 (ip), vehicle: saline) is reported as 6 of 10, the survivor count (dose: 10.0 mg/kg/injection, schedule: Q01DX009 (ip), vehicle: saline) is reported as 6 of 10 and the survivor count (dose: 20.0 mg/kg/injection, schedule: Q01DX009 (ip), vehicle: saline) is reported as 1 of 10. For the same compound, the survivor count [3] was 2 of 6, the survivor count [4] was 0 of 6 and the survivor count [5] was 0 of 6. The survivor count [6] was 0 of 6.
With `c1cncc(-c2nnc(-c3cccnc3)o2)c1` the survivor count (dose: 25.0 mg/kg/injection, schedule: Q04DX002 (ip), vehicle: saline with Tween-80) was 3 of 3 and the survivor count (dose: 100.0 mg/kg/injection, schedule: Q04DX002 (ip), vehicle: saline with Tween-80) was 1 of 3.
`CC(=O)OS(=O)(=O)c1ccc(C)cc1` was tested, and the survivor count (dose: 400.0 mg/kg/injection, schedule: Q01DX009 (ip), vehicle: saline) was 6 of 6.
For `C=CS(=O)(=O)c1ccc2ccccc2c1`, the survivor count (dose: 100.0 mg/kg/injection, schedule: Q04DX002 (ip), vehicle: Klucel (hydroxypropylcellulose) (HPC)) was 0 of 3, the survivor count (dose: 200.0 mg/kg/injection, schedule: Q04DX002 (ip), vehicle: Klucel (hydroxypropylcellulose) (HPC)) was 0 of 3 and the survivor count [11] was 0 of 3.

From PubChem BioAssay AID248 (DTP/NCI, 2004)
